Measured values as given in PubChem BioAssay AID488835 (Broad Institute, 2010).
In all, about 1,400 compounds went through this assay and about 140 (10%) were called active.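 Rule for the calls: active = Half-maximal inhibitory dose from the fit at or below ten times the top valid tested dose; inconclusive = Invalid fit, or flat curve showing 30 to 70% inhibition; inactive = the rest.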 The entries are a selection whose mix differs from that of the whole data set. Potency and affinity values are given separately.

By UniProt entry, the sequences of proteins in these tests, tags left out. Residues count along the entry.
UniProt Q9H3R0, 1-420 limits assumed: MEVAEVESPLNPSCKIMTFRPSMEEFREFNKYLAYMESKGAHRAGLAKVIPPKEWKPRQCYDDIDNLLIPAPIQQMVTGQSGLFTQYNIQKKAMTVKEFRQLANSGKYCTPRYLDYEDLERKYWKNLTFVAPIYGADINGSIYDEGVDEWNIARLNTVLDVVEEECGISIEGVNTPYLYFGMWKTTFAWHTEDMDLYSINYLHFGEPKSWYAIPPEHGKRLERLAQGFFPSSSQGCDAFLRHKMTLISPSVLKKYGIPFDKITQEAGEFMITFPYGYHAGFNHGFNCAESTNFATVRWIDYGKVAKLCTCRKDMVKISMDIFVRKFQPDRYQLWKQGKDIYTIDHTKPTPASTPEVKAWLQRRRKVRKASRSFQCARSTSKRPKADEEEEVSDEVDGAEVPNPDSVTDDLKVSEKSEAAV

Molecular target: Lysine-specific demethylase 4C (Homo sapiens) (UniProt Q9H3R0)
Experiment: GASC-1 (JMJD2C) histone demethylase inhibitors, dose response, biochemical, DELFIA europium, cherry-picked samples (AID 488835);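 note: signal is the H3K9me2 demethylation product detected by a dimethyl-specific antibody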
Settings: GST-JMJD2C(1-420), H3K9me3 demethylation; at 6 µM (top of the series) unless noted

Activity change, negative = inhibition, inactive:
COC(=O)c1nn(Cc2ccccc2)c(=O)c2ccccc12 3.16%
O=C1CCCc2c1nc(-c1ccccc1)n2O -4.82%
COC(=O)c1ccc(/C=C/c2c(-c3ccc(OC)cc3)sc3ccccc23)cc1 7.35%
CN(C)C(=O)c1cccc(-c2csc(N3CCC(C(N)=O)CC3)n2)c1 0.839%
O=C(O)CC(NC(=O)Cc1ccc(Cl)cc1)c1ccco1 (configuration not stated) 1.79%
CN1C(=O)/C(=C2\SC(=S)N(C(CCC(=O)O)C(=O)O)C2=O)c2ccccc21 (configuration not stated) 3.54%
CCOC(=O)N1CCN(S(=O)(=O)c2ccc3c(c2)CCN3C(=O)C2CC2)CC1 -8.56%
C/C=C(\C)c1nnc(NC(=O)C(C)C)s1 9.8%
CN1CCN(C(=O)CN(c2ccccc2)S(=O)(=O)N(C)C)CC1 -2.46%
CC12CN3CC(C)(CN(C1)C3c1ccc3ccccc3c1O)C2=O (configuration not stated) 10.4%
CC(C)=CC(=O)O[C@@H]1Cc2c(ccc3ccc(=O)oc23)OC1(C)C -1.34%
C[C@H]1CN([C@@H](C)CO)C(=O)c2cccc(NC(=O)C3CC3)c2O[C@H]1CN(C)Cc1ccncc1 1.11%
COc1ccc2sc(-c3ccc(S(C)(=O)=O)cc3)c(C#CCO)c2c1 -5.21%
COc1ccc(OC)c(N(CC(=O)NCc2ccncc2)S(C)(=O)=O)c1 -3.48%
Cc1cccc(NC(=S)N(CCN2CCOCC2)Cc2cc3cc4c(cc3[nH]c2=O)OCO4)c1 3.04%
COc1ccc(/C=C/C(=O)NC(=S)NNC(=O)Cc2cccs2)cc1OC -1.6%
CCOC(=O)c1[nH]c(C)c(/C(O)=C2\C(=O)C(=O)N(CCCN(CC)CC)C2c2cccnc2)c1C (configuration not stated) -0.553%
Cn1c2c(c(=O)n(C)c1=O)CN(CCCN1CCOCC1)CN2 4.17%
CCCc1nnc(SCC(=O)N2CCCC2)n1CC1CCCO1 (configuration not stated) -5.64%
Nc1ccc(S(=O)(=O)NC2(C(F)(F)F)NC(=O)N(c3ccc(F)cc3)C2=O)cc1 (configuration not stated) -0.954%
C=CCOC(=O)C1=C(C)NC(=O)NC1c1ccc(OC(=O)c2ccco2)c(OC)c1 (configuration not stated) 1.3%
Cc1ccc(N2CC(C(=O)Nc3ccc(N(C)C)cc3)CC2=O)cc1C (configuration not stated) -0.0625%
C=CCn1cnc2scc(-c3ccc(C)cc3)c2c1=O 4.03%
NNC(=O)c1nn(-c2ccc(Cl)cc2)ccc1=O 0.759%
COC(=O)c1ccc(CSc2nnc(N)s2)o1 3.51%
COc1ccccc1N=Cc1c(C)c(C#N)c2[nH]c3ccccc3n2c1=O -9.22%
C[C@H]1CN([C@@H](C)CO)C(=O)c2cc(NC(=O)C3CCCCC3)ccc2O[C@H]1CN(C)S(=O)(=O)c1ccccc1 2.4%
CCCn1nnnc1SCC(=O)NCc1ccc2c(c1)OCO2 17.8%
COc1ccccc1Nc1ncnc2ccccc12 7.2%
Cc1ccsc1C(=O)OCc1nc2ccccc2c(=O)[nH]1 0.601%
COc1ccc(Nc2cccc(Cl)c2)c(C(=O)O)c1 -1.94%
COC(=O)[C@]1(C)N[C@H](CN(C)C(=O)Nc2ccc(F)cc2)[C@@H]2C(=O)N(C)C(=O)[C@@H]21 -4.55%
CC(C)NC(=O)Nc1ccc2c(c1)C(=O)N([C@H](C)CO)C[C@H](C)[C@@H](CN(C)C(=O)Nc1ccccc1)O2 3.67%
C[C@@H](CN1CCC[C@H]1CN1C(N)=NC[C@@H]1Cc1ccccc1)N1C[C@@H](Cc2ccccc2)N(CCc2ccc(Cl)c(Cl)c2)C1=N -5.78%
Cc1cccc(-n2c(SCC(=O)Nc3ccc4c(c3)OCO4)nnc2-c2ccoc2C)c1 2.45%
Cc1ccc(C(=O)NCc2ccco2)cc1Br -7.8%
N#Cc1ccc(C23OCCN2CCn2nc4ccccc4c23)cc1 (configuration not stated) -1.41%
O=C(O)CCCC(=O)Nc1ccc(C(=O)NCc2cccnc2)cc1 3.5%
O=C(Cc1ccccc1Cl)N1CCN(c2ccccn2)CC1 7.57%
Cc1nc2c3cc(F)ccc3n(Cc3ccccc3)c2s1 0.346%
Cc1nnnn1/C(=C\c1ccccc1)C(=O)OCC(=O)NC(C)(C)C 4.63%
O=C(Nc1ccccc1)N1CCSCC1 8.02%
COc1ccc(OC)c(/C=C/C(=O)Nc2cccc(S(=O)(=O)NC3=NCCCCC3)c2)c1 13.8%
C[C@H](CO)N1C[C@H](C)[C@@H](CN(C)S(=O)(=O)c2ccccc2)Oc2ccc(NS(=O)(=O)c3ccc(F)cc3)cc2C1=O -0.626%
O=C(Nc1ccccc1)N(O)c1ccc(Cl)cc1 -3.7%
CS(=O)(=O)N(CC(=O)N1CCCCCC1)c1ccccc1 5.77%
CSc1ccccc1C(=O)Nc1ccc(C)c(C)c1 2.16%
CN1CCN(Cc2c(C#N)c3ccccc3n2C)CC1 2.97%
COc1ccc(C2C(C#N)=C(N)Oc3c2sc2nc(C)cc(C)c32)cc1 (configuration not stated) 4.79%
Cc1cc2c(cc1C)NC(CC(=O)NCc1ccccc1)C(=O)N2 (configuration not stated) 8.71%
CCCCNC(=O)c1nn2cc(Br)cnc2c1Br -2.06%
COc1ccc(C(=O)NCc2cccnc2)cc1S(=O)(=O)N1CCOCC1 4.76%
COc1cccc(CSc2nnc(C(F)(F)F)n2Cc2ccc(F)cc2)c1 -2.62%
O=C(COc1ccc(NC(=O)c2ccccc2)cc1)c1ccccc1 2.44%
CC(C)C[C@H](NC(=O)N1CCCCCC1)C(=O)O 5.35%
O=C1c2sc3nc4c(c(=O)n3c2C(=O)N1c1ccccc1)CCC4 4.3%
O=C1NCCN1CCNS(=O)(=O)c1ccccc1[N+](=O)[O-] 5.4%
Cc1cc(C)n(-c2nnc(C)n2/N=C/c2ccco2)n1 -0.704%
O=Cc1ccc(C(=O)OCC(=O)Nc2ccc(F)cc2F)cc1 6.41%
O=C(CC1NC(=O)NC1=O)Nc1ccccc1 (configuration not stated) 0.477%
CC(C)(C)NNC(=S)Nc1cccc(C(F)(F)F)c1 -0.508%
COC(=O)c1sc(S(=O)(=O)NCc2ccccc2)c(C(=O)OC)c1C 0.554%
COc1ccc(C2/C(=C(/O)c3ccccc3)C(=O)C(=O)N2CCN2CCOCC2)c(OC)c1 (configuration not stated) 5.45%
CCCN1C(=O)c2ccc(C(=O)Nc3cc(C)ccc3O)cc2C1=O 12.9%
O=C(NC1CCCc2ccccc21)c1ccc(Br)cc1 (configuration not stated) -1.06%
O=C(c1ccncc1)N1N=C(C2CCCCC2)CC1(O)C(F)(F)F (configuration not stated) 3.04% [at 1.6 µM]
COc1ccc(CN(Cc2nc3ccccc3c(=O)[nH]2)C(=O)NC2CCCCC2)cc1 -0.777%
c1ccc(-c2ccccc2OCCN2CCCC2)cc1 1.49%
N=c1nc(-c2ccccc2)ccn1O -3.32%
CCOc1ccc(CN2CCN(Cc3nc(C(C)C)cs3)CC2CCO)cc1 (configuration not stated) 6.09%
CCOC(=O)c1sc(NC(=O)CSc2nnc(-c3ccc(OC)cc3)n2CCOC)nc1C -4.16%
CC(=O)c1c(C(C)=O)c(C)n(-c2nc(-c3cccs3)c(C)s2)c1C -10.4%
COc1ccc(-c2nn(-c3ccccc3)cc2CNC(C)Cn2cncn2)c(F)c1 (configuration not stated) -4.46%
O=C(Nc1nnc(CCS(=O)(=O)c2ccc3ccccc3c2)s1)c1cccs1 5.42%
O=C(c1ccc(Cn2cc([N+](=O)[O-])cn2)o1)N1CCCCCC1 -3.94%
CC1=C(C(=O)OC(C)C)C(c2ccccc2)NC(=S)N1C (configuration not stated) 2.61%
CSc1nc(N)nc2c1ncn2CC(=O)N[C@H](C)c1cccc2ccccc12 5.54%
O=C(CCc1ccc(S(=O)(=O)NCc2ccccc2)cc1)NCc1ccc2c(c1)OCO2 -1.2%
C[C@H]1CN(CCc2ccccc2)C(=O)[C@@H]1CC(=O)NCc1ccccc1 -0.438%
CCOc1ccc(C(=O)Nc2nnc(C(C)C)s2)cc1OCC -2.14%
CC(C)(C)c1ccc(S(=O)(=O)/N=C2\C=C(NS(=O)(=O)c3ccccc3)C(=O)c3ccccc32)cc1 -10.3%
CCC(C)(C(=O)NC1CCCC1)N(Cc1cccs1)C(C)=O (configuration not stated) 1.51%
Cc1[nH]n2c(=O)c3c(nc2c1-c1ccccc1)CCCC3 -5.83%
C[C@H]1CN([C@@H](C)CO)C(=O)c2cc(NS(=O)(=O)c3ccc(Cl)cc3)ccc2O[C@@H]1CN(C)CC1CCCCC1 5.89%
COc1ccccc1/C=C/C(=O)Nc1ccc(N2CCOCC2)cc1 4.57%
CC1(C)CC2(CC(C)(C)N1)OC(=O)N1CCc3ccccc3C12C (configuration not stated) 3.75%
CC(C)(C)c1ccc(S(=O)(=O)NCc2ccc(C(=O)N3CCCC3)cc2)cc1 9.2%
CSc1nnnn1CCn1nnnc1SC -0.0116%
O=C(O)c1ccc2c(c1)nnn2C1CCCCC1 4.91%
COC(=O)C1CC(O)CN1C(=O)NC1CCCCC1 (configuration not stated) 1.33%
c1ccc(-c2csc(-n3cccn3)n2)cc1 -6.44%
Cc1cc(Cl)ccc1OCC(=O)NCCCN1CCOCC1 4.5%

Structural class, those above with a CF3 group
Activity change, negative = inhibition, inactive:
Nc1ccc(S(=O)(=O)NC2(C(F)(F)F)NC(=O)N(c3ccc(F)cc3)C2=O)cc1 (configuration not stated) -0.954%
COc1cccc(CSc2nnc(C(F)(F)F)n2Cc2ccc(F)cc2)c1 -2.62%
CC(C)(C)NNC(=S)Nc1cccc(C(F)(F)F)c1 -0.508%
O=C(c1ccncc1)N1N=C(C2CCCCC2)CC1(O)C(F)(F)F (configuration not stated) 3.04% [at 1.6 µM]
